Data: article PMC11661375

Target: T1, CBU_0937 tagged with C-terminal 3XFLAG (Coxiella burnetii) (UniProt Q83D09)
T1 sequence: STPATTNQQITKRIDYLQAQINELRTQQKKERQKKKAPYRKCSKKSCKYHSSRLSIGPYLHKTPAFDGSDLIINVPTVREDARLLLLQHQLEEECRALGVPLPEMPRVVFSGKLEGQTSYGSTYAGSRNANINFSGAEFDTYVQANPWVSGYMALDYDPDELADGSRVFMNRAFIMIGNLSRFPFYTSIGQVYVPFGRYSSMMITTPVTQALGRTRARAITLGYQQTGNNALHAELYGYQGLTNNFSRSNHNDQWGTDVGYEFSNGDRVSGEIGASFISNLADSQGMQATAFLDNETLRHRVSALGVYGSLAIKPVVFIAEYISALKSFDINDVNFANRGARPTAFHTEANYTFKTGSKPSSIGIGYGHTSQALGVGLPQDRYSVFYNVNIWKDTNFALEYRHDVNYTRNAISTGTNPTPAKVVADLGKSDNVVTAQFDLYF
Assay: affinity purification with mass spectrometry

B1: CYP1B1 (enzyme, UniProt Q16678 1-543)
chain: MGTSLSPNDPWPLNPLSIQQTTLLLLLSVLATVHVGQRLLRQRRRQLRSAPPGPFAWPLIGNAAAVGQAAHLSFARLARRYGDVFQIRLGSCPIVVLNGERAIHQALVQQGSAFADRPAFASFRVVSGGRSMAFGHYSEHWKVQRRAAHSMMRNFFTRQPRSRQVLEGHVLSEARELVALLVRGSADGAFLDPRPLTVVAVANVMSAVCFGCRYSHDDPEFRELLSHNEEFGRTVGAGSLVDVMPWLQYFPNPVRTVFREFEQLNRNFSNFILDKFLRHCESLRPGAAPRDMMDAFILSAEKKAAGDSHGGGARLDLENVPATITDIFGASQDTLSTALQWLLLLFTRYPDVQTRVQAELDQVVGRDRLPCMGDQPNLPYVLAFLYEAMRFSSFVPVTIPHATTANTSVLGYHIPKDTVVFVNQWSVNHDPLKWPNPENFDPARFLDKDGLINKDLTSRVMIFSVGKRRCIGEELSKMQLFLFISILAHQCDFRANPNEPAKMNFSYGLTIKPKSFKVNVTLRESMELLDSAVQNLQAKETCQ
- binding: binds

No constants are given. Whether binding was seen depends on the method and setting. In cells and extracts the contact can be indirect. Here binding means that the protein was enriched with, or labelled near, the bait; the list need not be complete. Where a sequence is shown, tags or fusion partners need not be part of it.
